No constants are given. Whether binding was seen depends on the method and setting. Binding seen in cells or lysates may run through a third protein. Some binding calls cover weakened binding; strength is not graded here. Tags and fused reporters may be left off the sequences shown.
Tests used:
[1] = target: T1, ETS1 recombinant (GST fusion protein) (UniProt P14921); test: pull-down; GST fusion protein immobilised on glutathione-sepharose beads, incubated with cell lysate (RIPA) at 4 °C overnight, 6 washes; only the target purified
T1 sequence: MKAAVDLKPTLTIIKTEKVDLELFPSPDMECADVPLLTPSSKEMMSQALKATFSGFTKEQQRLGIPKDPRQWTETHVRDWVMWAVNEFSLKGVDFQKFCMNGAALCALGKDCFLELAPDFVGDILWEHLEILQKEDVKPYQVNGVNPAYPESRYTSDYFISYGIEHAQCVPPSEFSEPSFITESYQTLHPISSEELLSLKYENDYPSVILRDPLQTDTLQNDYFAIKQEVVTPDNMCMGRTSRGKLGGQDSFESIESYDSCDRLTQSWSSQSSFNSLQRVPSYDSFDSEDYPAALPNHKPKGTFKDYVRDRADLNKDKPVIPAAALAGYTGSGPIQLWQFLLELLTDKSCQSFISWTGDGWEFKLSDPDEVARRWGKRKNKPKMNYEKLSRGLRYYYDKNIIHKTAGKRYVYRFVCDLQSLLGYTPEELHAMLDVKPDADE

[2] = target: T2, ETS1-1 (1-134 aa) (UniProt P14921); test: co-IP; Flag-tagged ETS1 truncations transfected in 786-O cells, co-IP with Flag-tagged antibodies, western blot
T2 sequence: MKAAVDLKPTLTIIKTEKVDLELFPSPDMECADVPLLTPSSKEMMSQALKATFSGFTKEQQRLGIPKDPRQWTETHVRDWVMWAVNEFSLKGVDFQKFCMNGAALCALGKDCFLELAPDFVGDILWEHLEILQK

[3] = target: T3, ETS1 (human (endogenous in 786-O and ACHN)) (UniProt P14921); test: co-IP; endogenous proteins in RIPA lysate of 786-O and ACHN cells, specific antibodies and magnetic beads, 4 °C overnight, 6 washes, western blot; cells also after HDAC8 sgRNA/shRNA, 10 µM PCI-34051, HDAC8 WT or S39D overexpression, NEK1 siRNA, NEK1 plasmids or 10 µM BSc5367
T3 sequence: T1 sequence

[4] = target: T3, ETS1 (human (endogenous in 786-O and ACHN)); test: proximity ligation; proximity ligation assay in 786-O cells with antibodies against ETS1 and HDAC8, immunofluorescence

- binding [1]: binds
- binding [2]: binds
- binding [3]: binds
- binding [4]: binds
B1: histone deacetylase 8 (HDAC8) (enzyme, UniProt Q9BY41 1-377)
chain: MEEPEEPADSGQSLVPVYIYSPEYVSMCDSLAKIPKRASMVHSLIEAYALHKQMRIVKPKVASMEEMATFHTDAYLQHLQKVSQEGDDDHPDSIEYGLGYDCPATEGIFDYAAAIGGATITAAQCLIDGMCKVAINWSGGWHHAKKDEASGFCYLNDAVLGILRLRRKFERILYVDLDLHHGDGVEDAFSFTSKVMTVSLHKFSPGFFPGTGDVSDVGLGKGRYYSVNVPIQDGIQDEKYYQICESVLKEVYQAFNPKAVVLQLGADTIAGDPMCSFNMTPVGIGKCLKYILQWQLATLILGGGGYNLANTARCWTYLTGVILGKTLSSEIPDHEFFTAYGPDYVLEITPSCRPDRNEPHRIQQILNYIKGNLKHVV

Source: publication PMC11423204
